The mice bore no tumour; each value counts animals alive of those treated. Counts of survivors are from the toxicity check (mostly the fifth day) where no day follows; animals may have died later. Schedules are NCI's codes, taken here to give the interval after Q, in days (D) or hours (H), and the number of doses after X. Some entries were tested several times; their values stand side by side, smallest first.
Tested on: B6D2F1 mice, nontumored toxicity test, survival
Test: NCI In Vivo Anticancer Drug Screen. Data for tumor model Nontumored Animals (Toxicity Test) in B6D2F1 (BDF1) mice
Details: vehicle: water

Q: What does the source list for `C[n+]1ccc(Nc2ccc(NC(=O)c3ccc(Nc4cc[n+](C)c5ccc(N)cc45)cc3N)cc2)cc1`?
A: survivor count (dose: 0.25 mg/kg/injection, schedule: Q01DX005 (iv)): 8 of 8; survivor count (dose: 0.5 mg/kg/injection, schedule: Q01DX005 (iv)): 8 of 8; survivor count (dose: 0.5 mg/kg/injection, schedule: Q01DX009 (ip)): 8 of 8; survivor count (dose: 0.5 mg/kg/injection, schedule: Q03HX008 (ip)): 8 of 8; survivor count (dose: 0.5 mg/kg/injection, schedule: Q03HX016 (ip)): 8 of 8; survivor count (dose: 0.5 mg/kg/injection, schedule: Q03HX024 (ip)): 8 of 8; survivor count (dose: 0.5 mg/kg/injection, schedule: Q04DX003 (iv)): 8 of 8; survivor count (dose: 1.0 mg/kg/injection, schedule: Q01DX005 (iv)): 7 of 7; survivor count (dose: 1.0 mg/kg/injection, schedule: Q01DX009 (ip)): 8 of 8; survivor count (dose: 1.0 mg/kg/injection, schedule: Q01DX009 (oral)): 8 of 8; survivor count (dose: 1.0 mg/kg/injection, schedule: Q03HX008 (ip)): 8 of 8; survivor count (dose: 1.0 mg/kg/injection, schedule: Q03HX016 (ip)): 8 of 8; survivor count (dose: 1.0 mg/kg/injection, schedule: Q03HX024 (ip)): 8 of 8; survivor count (dose: 1.0 mg/kg/injection, schedule: Q03HX024 (oral)): 8 of 8; survivor count (dose: 1.0 mg/kg/injection, schedule: Q04DX003 (iv)): 8 of 8; survivor count (dose: 2.0 mg/kg/injection, schedule: Q01DX001 (ip)): 8 of 8; survivor count (dose: 2.0 mg/kg/injection, schedule: Q01DX005 (iv)): 8 of 8; survivor count (dose: 2.0 mg/kg/injection, schedule: Q01DX009 (ip)): 8 of 8; survivor count (dose: 2.0 mg/kg/injection, schedule: Q01DX009 (oral)): 8 of 8; survivor count (dose: 2.0 mg/kg/injection, schedule: Q03HX008 (ip)): 8 of 8; survivor count (dose: 2.0 mg/kg/injection, schedule: Q03HX016 (ip)): 8 of 8; survivor count (dose: 2.0 mg/kg/injection, schedule: Q03HX024 (ip)): 8 of 8; survivor count (dose: 2.0 mg/kg/injection, schedule: Q03HX024 (oral)): 8 of 8; survivor count (dose: 2.0 mg/kg/injection, schedule: Q04DX003 (ip)): 8 of 8; survivor count (dose: 2.0 mg/kg/injection, schedule: Q04DX003 (iv)): 8 of 8; survivor count (dose: 2.0 mg/kg/injection, schedule: Q08DX002 (ip)): 8 of 8; survivor count (dose: 4.0 mg/kg/injection, schedule: Q01DX001 (ip)): 8 of 8; survivor count (dose: 4.0 mg/kg/injection, schedule: Q01DX005 (iv)): 3 of 8; survivor count (dose: 4.0 mg/kg/injection, schedule: Q01DX009 (ip)): 8 of 8; survivor count (dose: 4.0 mg/kg/injection, schedule: Q01DX009 (oral)): 8 of 8; survivor count (dose: 4.0 mg/kg/injection, schedule: Q03HX008 (ip)): 8 of 8; survivor count (dose: 4.0 mg/kg/injection, schedule: Q03HX016 (ip)): 8 of 8; survivor count (dose: 4.0 mg/kg/injection, schedule: Q03HX024 (ip)): 8 of 8; survivor count (dose: 4.0 mg/kg/injection, schedule: Q03HX024 (oral)): 8 of 8; survivor count (dose: 4.0 mg/kg/injection, schedule: Q04DX003 (ip)): 8 of 8; survivor count (dose: 4.0 mg/kg/injection, schedule: Q04DX003 (iv)): 8 of 8; survivor count (dose: 4.0 mg/kg/injection, schedule: Q08DX002 (ip)): 8 of 8; survivor count (dose: 8.0 mg/kg/injection, schedule: Q01DX001 (ip)): 8 of 8; survivor count (dose: 8.0 mg/kg/injection, schedule: Q01DX005 (ip)): 7 of 8; survivor count (dose: 8.0 mg/kg/injection, schedule: Q01DX009 (ip)): 8 of 8; survivor count (dose: 8.0 mg/kg/injection, schedule: Q01DX009 (oral)): 8 of 8; survivor count (dose: 8.0 mg/kg/injection, schedule: Q03HX008 (ip)): 5 of 8; survivor count (dose: 8.0 mg/kg/injection, schedule: Q03HX016 (ip)): 7 of 8; survivor count (dose: 8.0 mg/kg/injection, schedule: Q03HX024 (ip)): 7 of 8; survivor count (dose: 8.0 mg/kg/injection, schedule: Q03HX024 (oral)): 8 of 8; survivor count (dose: 8.0 mg/kg/injection, schedule: Q04DX003 (ip)): 8 of 8; survivor count (dose: 8.0 mg/kg/injection, schedule: Q04DX003 (iv)): 0 of 8; survivor count (dose: 8.0 mg/kg/injection, schedule: Q08DX002 (ip)): 8 of 8; survivor count (dose: 16.0 mg/kg/injection, schedule: Q01DX001 (ip)): 7 of 8; survivor count (dose: 16.0 mg/kg/injection, schedule: Q01DX005 (ip)): 4 of 8; survivor count (dose: 16.0 mg/kg/injection, schedule: Q01DX009 (ip)): 0 of 8; survivor count (dose: 16.0 mg/kg/injection, schedule: Q03HX008 (ip)): 1 of 8; survivor count (dose: 16.0 mg/kg/injection, schedule: Q03HX016 (ip)): 0 of 8; survivor count (dose: 16.0 mg/kg/injection, schedule: Q03HX024 (ip)): 2 of 8; survivor count (dose: 16.0 mg/kg/injection, schedule: Q04DX003 (ip)): 7 of 8 and 8 of 8; survivor count (dose: 16.0 mg/kg/injection, schedule: Q08DX002 (ip)): 7 of 8 and 8 of 8; survivor count (dose: 32.0 mg/kg/injection, schedule: Q01DX001 (ip)): 1 of 8; survivor count (dose: 32.0 mg/kg/injection, schedule: Q01DX005 (ip)): 0 of 8; survivor count (dose: 32.0 mg/kg/injection, schedule: Q01DX009 (ip)): 0 of 8; survivor count (dose: 32.0 mg/kg/injection, schedule: Q04DX003 (ip)): 3 of 8; survivor count (dose: 32.0 mg/kg/injection, schedule: Q08DX002 (ip)): 2 of 8; survivor count (dose: 64.0 mg/kg/injection, schedule: Q01DX001 (ip)): 0 of 8; survivor count (dose: 64.0 mg/kg/injection, schedule: Q01DX005 (ip)): 0 of 8; survivor count (dose: 64.0 mg/kg/injection, schedule: Q01DX009 (ip)): 0 of 8; survivor count (dose: 64.0 mg/kg/injection, schedule: Q04DX003 (ip)): 0 of 8; survivor count (dose: 64.0 mg/kg/injection, schedule: Q08DX002 (ip)): 0 of 8; survivor count (dose: 128.0 mg/kg/injection, schedule: Q01DX001 (ip)): 0 of 8; survivor count (dose: 128.0 mg/kg/injection, schedule: Q04DX003 (ip)): 0 of 8; survivor count (dose: 128.0 mg/kg/injection, schedule: Q08DX002 (ip)): 0 of 8
